Measurements taken from PubChem BioAssay AID493014 (National Center for Advancing Translational Sciences (NCATS), 2011).
Some of the results follow. These are further read-outs of the screen, such as a control signal, another cell line or another target. No call is given for them. The list favours compounds with an active or inconclusive main result. The note in brackets gives the kind of curve behind each potency; many fits are weak.

Test: qHTS Assay to Find Inhibitors of Chronic Active B-Cell Receptor Signaling
Settings: ABC-DLBCL IkBa-CBG/CBR reporter, luminescence ratio (green luciferase fused to IkBa over red control in TMD8 lymphoma cells), 4 h
How it was run: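 Cell line TMD8 (human ABC DLBCL), stably expressing tet-inducible CBG68-IkBa fusion and CBR; IMDM/0.5% FBS; cpd up to 46 uM; dox induction, 4 h, 37C/5% CO2; dual luminescence; green/red ratio; MG132 control.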

[1] = measured here: CBR red luminescence, cell number
[2] = measured here: IkBa-CBG green luminescence

| Structure (SMILES) | AC50 [1] | AC50 [2] |
| --- | --- | --- |
| COc1cccc(Cn2c(Oc3cccc(C)c3)nc3c2c(=O)n(C)c(=O)n3C)c1 | 16.4 µM [rising, single point] |  |
| CC(C)(C)n1cnc2cc(NS(=O)(=O)c3ccc(Br)cc3)ccc21 | 1.84 µM [falling, partial curve, poor fit] |  |
| NC(=O)c1nc[nH]c1C(=O)Nc1cccc(C(F)(F)F)c1 | 0.092 µM [rising, full curve, poor fit] |  |
| O=C1NC(=S)S/C1=C\c1ccc(SCc2ccco2)o1 | 0.58 µM [rising, partial curve, poor fit] |  |
| COc1ccc(-c2nc(N)ncc2-c2ccc(OC)c(OC)c2)c(O)c1 | 35.5 µM [falling, single point] |  |
| COc1ccc(/C=C/C(=O)Nc2cccc(S(=O)(=O)NC3=NCCCCC3)c2)c(OC)c1 | 25.9 µM [falling, single point] |  |
| c1ccc(Cn2cc(CNc3ccccc3)nn2)cc1 | 2.51 µM [rising, full curve, poor fit] |  |
| O=C(c1nc2ccc(Cl)cn2c1CN1CCC[C@H]1CO)N1CCCCCCC1 | 3.55 µM [rising, partial curve, poor fit] |  |
| CCC1C(O)=C(c2ccccn2)C(=N)N1c1ccccc1 (configuration not stated) | 1.58 µM [falling, full curve] |  |
| COc1cc(SC)ccc1C(=O)OC(C)C(=O)NC1CCCC1 (configuration not stated) | 35.5 µM [falling, partial curve, poor fit] |  |
| Cc1cc(=O)oc2cc(NC(=S)NCc3cccnc3)ccc12 | 2 µM [rising, full curve, poor fit] |  |
| CC(=O)N[C@@H](Cc1c[nH]c2ccccc12)C(=O)OCC(=O)NCc1ccc2c(c1)OCO2 | 35.5 µM [rising, single point] |  |
| CS(=O)(=O)Cc1cccc(C(=O)NC2CCSc3ccccc32)c1 (configuration not stated) | 7.94 µM [falling, partial curve, poor fit] |  |
| N#C/C(=C\c1c(N2CCOCC2)nc2ccccn2c1=O)S(=O)(=O)c1ccccc1 | 6.31 µM [falling, full curve, poor fit] |  |
| COc1cccc2[nH]c3c(Cl)ncnc3c12 |  | 4.11 µM [rising, full curve] |
| CCOC(=O)c1c(NC(=O)c2ccccc2C)sc2c1CC(C)(C)OC2 | 0.00461 µM [rising, full curve, poor fit] |  |
| O=C(COC(=O)C1CC1)Nc1nc(-c2ccc(F)c(F)c2)cs1 | 9.2 µM [rising, partial curve, poor fit] |  |
| CCOC(=O)c1c(C)[nH]c(C)c1C(=O)CSc1nc2ccccc2c(=O)n1-c1ccc(Cl)cc1 | 32.6 µM [falling, partial curve, poor fit] |  |
| O=C(N/N=C/c1ccc[nH]1)c1ccccc1[N+](=O)[O-] | 20.6 µM [falling, partial curve, poor fit] |  |
| COc1ccccc1NC(=O)NCCc1ccccc1 | 35.5 µM [falling, single point] |  |
| CCc1n[nH]c(=S)n1/N=C/c1cccc2ccccc12 | 10 µM [rising, partial curve, poor fit] |  |

Random excerpt: three entries already listed.

| Structure (SMILES) | AC50 [1] | AC50 [2] |
| --- | --- | --- |
| COc1ccc(-c2nc(N)ncc2-c2ccc(OC)c(OC)c2)c(O)c1 | 35.5 µM [falling, single point] |  |
| CCc1n[nH]c(=S)n1/N=C/c1cccc2ccccc12 | 10 µM [rising, partial curve, poor fit] |  |
| COc1ccccc1NC(=O)NCCc1ccccc1 | 35.5 µM [falling, single point] |  |

Later entries

| Structure (SMILES) | AC50 [1] | AC50 [2] |
| --- | --- | --- |
| CCCCN(CC(=O)NC(C)(C)C)C(=O)C(=O)Nc1ccc2c(c1)OCCO2 | 25.1 µM [falling, single point] |  |
| C=CCn1c(-c2csc(-c3ccc(OC)c(OC)c3)n2)n[nH]c1=S | 3.16 µM [rising, full curve] |  |
| O=C(Nc1ccc(-c2nc3ccccc3o2)cc1)c1cc(-n2cnnc2)ccc1Cl | 0.731 µM [rising, full curve, poor fit] |  |
| O=C(NC(=S)NCCc1ccccc1)C1CCCCC1 | 0.146 µM [rising, full curve, poor fit] |  |
| CN1CCSc2ccc(C(=O)Nc3cc(F)ccc3F)cc21 | 11.2 µM [falling, partial curve] |  |
| CCOC(=O)N1CCN(S(=O)(=O)c2ccc(OC)c(Cl)c2)CC1 | 4.11 µM [falling, single point] |  |
| COc1ccc(C(=O)Nc2ccccc2C(=O)NCC2CCCO2)cc1 (configuration not stated) | 35.5 µM [rising, single point] |  |
| COC(=O)c1ccc2[nH]c3c(c2c1)CC(C)CC3 (configuration not stated) | 14.1 µM [rising, partial curve] |  |
| COc1ccc(C(=O)CSc2nc3c(c(=O)n(C)c(=O)n3C)n2C)cc1 | 22.4 µM [rising, single point] |  |
| CCOC(=O)c1oc2ccccc2c1NC(=O)C1CCCCC1 | 4.61 µM [rising, single point] |  |
| FC(F)(F)c1nnc2ccc(NCc3ccccc3)nn12 | 12.6 µM [falling, partial curve, poor fit] |  |
| CCOC(=O)CSc1nnc(CNC(=O)c2cccs2)n1-c1cc(OC)ccc1OC | 0.731 µM [rising, partial curve, poor fit] |  |
| Cc1ccc(NC2CC(=O)N(CCc3ccccc3)C2=O)cc1 (configuration not stated) | 2.91 µM [falling, single point] |  |
| CSc1ccc(CNC(=O)Cc2ccc(NC(=O)C3=C(C)OCCS3)cc2)cc1 | 35.5 µM [rising, single point] |  |
| COc1ccc(-c2cc(C(=O)Nc3cnn(Cc4ccccc4C)c3)no2)cc1OC | 11.2 µM [falling, partial curve] |  |
| CN(CC(=O)Nc1ccc(F)c(F)c1F)C(=O)C1=NN(c2ccccc2)C(=O)CC1 | 13 µM [rising, partial curve, poor fit] |  |
| CCC1CCCCN1C(=O)CSc1nnc(-c2c[nH]c3ccccc23)o1 (configuration not stated) | 35.5 µM [falling, single point] |  |
| N#Cc1c(-c2ccco2)cc(-c2ccc(F)cc2)nc1N | 10.3 µM [falling, partial curve, poor fit] | 1.03 µM [rising, partial curve, poor fit] |
| CC12CC(NC(=O)N1c1cccc(C(=O)NCc3ccccn3)c1)c1ccccc1O2 (configuration not stated) | 22.4 µM [rising, partial curve, poor fit] |  |
| CCc1cc(C(=O)N2CCCC(C(=O)c3cccc(OC(C)C)c3)C2)n(C)n1 (configuration not stated) | 5.62 µM [falling, full curve, poor fit] |  |
| CC(C)C[C@H](N)c1nnc(S(=O)(=O)Cc2ccc(F)cc2)o1 | 2.24 µM [falling, full curve] |  |

| Structure (SMILES) | AC50 [1] | AC50 [2] |
| --- | --- | --- |
| CC1CCN(c2oc(Cc3cccc4ccccc34)nc2C#N)CC1 | 2.24 µM [rising, partial curve, poor fit] | 10 µM [falling, partial curve, poor fit] |
| COc1cc(S(=O)(=O)N2CCN(C)CC2)c(OC)cc1Br | 8.2 µM [falling, single point] |  |
| Cc1ccccc1-n1c(C)nnc1SCC(=O)NCC1CCCO1 (configuration not stated) | 17.8 µM [rising, single point] |  |
| O=C(c1ccc(Cl)cc1)N1C2C=CC(C2)C1(C(F)(F)F)C(F)(F)F (configuration not stated) | 23.1 µM [rising, partial curve, poor fit] |  |
| Cc1cc[n+](-c2[nH]c(=O)sc2/C=N/N=C(\[O-])c2ccccc2)cc1 | 22.4 µM [falling, single point] |  |
| Cc1cccc(CSCCNC(=O)COc2ccc(Cl)cc2)c1 | 18.4 µM [rising, partial curve, poor fit] |  |
| CCC(=O)N1CCC2(CC1)Oc1ccc(Cl)cc1C(=O)C21CC(c2ccccc2)=NO1 (configuration not stated) | 14.1 µM [falling, single point] |  |
| O=C(N[C@@H](Cc1ccccc1)C(=O)N1CCN(S(=O)(=O)c2ccccc2F)CC1)c1ccco1 | 14.6 µM [rising, partial curve, poor fit] |  |
| CCCCOC(=O)c1cc(=O)[nH]c2ccc(C)cc12 | 6.31 µM [rising, partial curve, poor fit] |  |
| Cc1nc(N/N=C/c2ccccn2)sc1C | 16.4 µM [falling, single point] | 16.4 µM [falling, single point] |
| COCCNC(=S)N/N=C(\C)c1ccc(Cl)s1 | 35.5 µM [falling, single point] | 12.6 µM [falling, partial curve] |
| CCCCN1C(=O)C2C3C=CC(C2C1=O)C1C2C(=O)N(CCCC)C(=O)C2C31 (configuration not stated) | 0.651 µM [falling, full curve, poor fit] |  |
| O=C(COC(=O)c1nsc(Cl)c1Cl)NC1CCCCC1 | 12.6 µM [rising, partial curve, poor fit] |  |
| Nc1c(C(=O)NC23CC4CC(CC(C4)C2)C3)sc2nc3c(c(C(F)(F)F)c12)CCC3 | 3.16 µM [rising, single point] |  |
| COC(=O)c1cc(NC(=O)/C=C/c2ccccc2)ccc1O | 3.55 µM [falling, full curve] |  |
| CS(=O)c1ccccc1COC(=O)Nc1ccc(Cl)cc1 (configuration not stated) |  | 18.4 µM [rising, partial curve, poor fit] |
| O=C(Nc1nc2c(F)cc(F)cc2s1)C1COc2ccccc2O1 (configuration not stated) | 7.94 µM [falling, partial curve] |  |
| FC(F)(F)c1cccc(NC(=S)Nc2cccc(Cl)c2)c1 | 22.4 µM [rising, single point] |  |
| Cc1ccc(C(=O)CSc2ncnc3ccccc23)o1 | 14.1 µM [falling, single point] |  |
| COc1ccccc1-n1cnnc1SCc1csc(-c2ccccc2)n1 | 2.91 µM [falling, partial curve] |  |
| Cc1ccc(NC(=S)C2=C(O)c3sccc3N(C)S2(=O)=O)cc1 | 9.2 µM [falling, single point] |  |
